Measurements from patent US11596716B2, “Compounds and matrices for use in bone growth and repair” (Human BioMolecular Research Institute, priority 2013, dated 2023).
Some entries share one result that the patent states for a list of compounds.

Assays:
hMSCs = experiment: Alkaline Phosphatase functional activity assay in hMSCs; format: cell-based, human; conditions: 500 nM
C2C12 cells [1] = experiment: Alkaline Phosphatase (ALP) functional activity assay in C2C12 cells; format: cell-based, Mouse; conditions: 500 nM, ceramic 5 mg/mL
Protocol: Alkaline Phosphatase (ALP) Functional Activity Assay: C2C12 cells were plated into 12-well plates with 7,000 cells/well in 1 mL growth media. […] 1, 2, 3, or 4 in 0.1% DMSO was added (500 nM). Half the media was exchanged with fresh media containing compound every 48 hrs. After 6 days, media was removed, ALP Lysis Buffer (10 mM Tris-HCl pH 8.0, 1 mM MgCl2, and 1% Triton X100) added, and cell lysate obtained (10 min incubation at RT) by centrifugation (5 min at 3500× g at 4° C.). Para-nitrophenol phosphate (pNPP) (2 mg/mL) was incubated with 50 μl cell lysate (10 mins, 37° C.). After addition of […] 0.02 N NaOH, absorbance OD405 was measured. Protein concentration was determined by Bradford protein assay. Results of ALP activity were plotted as nM pNP hydrolyzed/mg total protein. After normalizing control samples (i.e., DMSO-treated samples) to one-fold, the fold-changes were plotted to indicate the relative ALP activity. […] This protocol was applied to hMSC and E15 cells as well.

C2C12 cells [2] = experiment: qPCR detection of osteogenic markers in C2C12 cells; format: cell-based, Mouse; conditions: 500 nM, 6 days

**Q.** Which results are given for `CC(C)[C@H](N)C(=O)Oc1ccc(C=CC(=O)C=C(O)C=Cc2ccc(OC(=O)[C@@H](N)C(C)C)cc2)cc1` [Compound 3, (2S,2′S)—O,O′-(3-hydroxy-5-oxohepta-1,3,6-triene-1,7-diyl)bis(4,1-phenylene) bis(2-amino-3-methylbutanoate)]?
**A.** ALP functional activity greater than cells treated with calcium phosphate matrix alone (hMSCs; matrix 5 mg/mL, after 8 days of incubation): up to 4.5 fold; ALP functional activity greater than DMSO-treated cells (hMSCs; no matrix): up to 2.6 fold; ALP activity with calcium phosphate ceramic compared to cells treated without ceramic (C2C12 cells [1]): 2.3- to 22 fold; expression of osteogenic biomarker (collagen/mRNA) with matrix (C2C12 cells [2]; calcium phosphate ceramic 5 mg/mL, compared to treated cells without matrix): 10- to 90 fold; expression of osteogenic biomarker (collagen/mRNA) (C2C12 cells [2]; no matrix, compared to untreated cells): 1.2- to 5 fold
